Results taken from article PMC8396294.
Results are given in words; binding and its absence hold for the method and conditions named. Binding seen in cells or lysates may run through a third protein. Some entries that bind do so weakly or less than the wild type.

By UniProt entry, the sequences of proteins in these tests, tags left out.
UniProt P51111: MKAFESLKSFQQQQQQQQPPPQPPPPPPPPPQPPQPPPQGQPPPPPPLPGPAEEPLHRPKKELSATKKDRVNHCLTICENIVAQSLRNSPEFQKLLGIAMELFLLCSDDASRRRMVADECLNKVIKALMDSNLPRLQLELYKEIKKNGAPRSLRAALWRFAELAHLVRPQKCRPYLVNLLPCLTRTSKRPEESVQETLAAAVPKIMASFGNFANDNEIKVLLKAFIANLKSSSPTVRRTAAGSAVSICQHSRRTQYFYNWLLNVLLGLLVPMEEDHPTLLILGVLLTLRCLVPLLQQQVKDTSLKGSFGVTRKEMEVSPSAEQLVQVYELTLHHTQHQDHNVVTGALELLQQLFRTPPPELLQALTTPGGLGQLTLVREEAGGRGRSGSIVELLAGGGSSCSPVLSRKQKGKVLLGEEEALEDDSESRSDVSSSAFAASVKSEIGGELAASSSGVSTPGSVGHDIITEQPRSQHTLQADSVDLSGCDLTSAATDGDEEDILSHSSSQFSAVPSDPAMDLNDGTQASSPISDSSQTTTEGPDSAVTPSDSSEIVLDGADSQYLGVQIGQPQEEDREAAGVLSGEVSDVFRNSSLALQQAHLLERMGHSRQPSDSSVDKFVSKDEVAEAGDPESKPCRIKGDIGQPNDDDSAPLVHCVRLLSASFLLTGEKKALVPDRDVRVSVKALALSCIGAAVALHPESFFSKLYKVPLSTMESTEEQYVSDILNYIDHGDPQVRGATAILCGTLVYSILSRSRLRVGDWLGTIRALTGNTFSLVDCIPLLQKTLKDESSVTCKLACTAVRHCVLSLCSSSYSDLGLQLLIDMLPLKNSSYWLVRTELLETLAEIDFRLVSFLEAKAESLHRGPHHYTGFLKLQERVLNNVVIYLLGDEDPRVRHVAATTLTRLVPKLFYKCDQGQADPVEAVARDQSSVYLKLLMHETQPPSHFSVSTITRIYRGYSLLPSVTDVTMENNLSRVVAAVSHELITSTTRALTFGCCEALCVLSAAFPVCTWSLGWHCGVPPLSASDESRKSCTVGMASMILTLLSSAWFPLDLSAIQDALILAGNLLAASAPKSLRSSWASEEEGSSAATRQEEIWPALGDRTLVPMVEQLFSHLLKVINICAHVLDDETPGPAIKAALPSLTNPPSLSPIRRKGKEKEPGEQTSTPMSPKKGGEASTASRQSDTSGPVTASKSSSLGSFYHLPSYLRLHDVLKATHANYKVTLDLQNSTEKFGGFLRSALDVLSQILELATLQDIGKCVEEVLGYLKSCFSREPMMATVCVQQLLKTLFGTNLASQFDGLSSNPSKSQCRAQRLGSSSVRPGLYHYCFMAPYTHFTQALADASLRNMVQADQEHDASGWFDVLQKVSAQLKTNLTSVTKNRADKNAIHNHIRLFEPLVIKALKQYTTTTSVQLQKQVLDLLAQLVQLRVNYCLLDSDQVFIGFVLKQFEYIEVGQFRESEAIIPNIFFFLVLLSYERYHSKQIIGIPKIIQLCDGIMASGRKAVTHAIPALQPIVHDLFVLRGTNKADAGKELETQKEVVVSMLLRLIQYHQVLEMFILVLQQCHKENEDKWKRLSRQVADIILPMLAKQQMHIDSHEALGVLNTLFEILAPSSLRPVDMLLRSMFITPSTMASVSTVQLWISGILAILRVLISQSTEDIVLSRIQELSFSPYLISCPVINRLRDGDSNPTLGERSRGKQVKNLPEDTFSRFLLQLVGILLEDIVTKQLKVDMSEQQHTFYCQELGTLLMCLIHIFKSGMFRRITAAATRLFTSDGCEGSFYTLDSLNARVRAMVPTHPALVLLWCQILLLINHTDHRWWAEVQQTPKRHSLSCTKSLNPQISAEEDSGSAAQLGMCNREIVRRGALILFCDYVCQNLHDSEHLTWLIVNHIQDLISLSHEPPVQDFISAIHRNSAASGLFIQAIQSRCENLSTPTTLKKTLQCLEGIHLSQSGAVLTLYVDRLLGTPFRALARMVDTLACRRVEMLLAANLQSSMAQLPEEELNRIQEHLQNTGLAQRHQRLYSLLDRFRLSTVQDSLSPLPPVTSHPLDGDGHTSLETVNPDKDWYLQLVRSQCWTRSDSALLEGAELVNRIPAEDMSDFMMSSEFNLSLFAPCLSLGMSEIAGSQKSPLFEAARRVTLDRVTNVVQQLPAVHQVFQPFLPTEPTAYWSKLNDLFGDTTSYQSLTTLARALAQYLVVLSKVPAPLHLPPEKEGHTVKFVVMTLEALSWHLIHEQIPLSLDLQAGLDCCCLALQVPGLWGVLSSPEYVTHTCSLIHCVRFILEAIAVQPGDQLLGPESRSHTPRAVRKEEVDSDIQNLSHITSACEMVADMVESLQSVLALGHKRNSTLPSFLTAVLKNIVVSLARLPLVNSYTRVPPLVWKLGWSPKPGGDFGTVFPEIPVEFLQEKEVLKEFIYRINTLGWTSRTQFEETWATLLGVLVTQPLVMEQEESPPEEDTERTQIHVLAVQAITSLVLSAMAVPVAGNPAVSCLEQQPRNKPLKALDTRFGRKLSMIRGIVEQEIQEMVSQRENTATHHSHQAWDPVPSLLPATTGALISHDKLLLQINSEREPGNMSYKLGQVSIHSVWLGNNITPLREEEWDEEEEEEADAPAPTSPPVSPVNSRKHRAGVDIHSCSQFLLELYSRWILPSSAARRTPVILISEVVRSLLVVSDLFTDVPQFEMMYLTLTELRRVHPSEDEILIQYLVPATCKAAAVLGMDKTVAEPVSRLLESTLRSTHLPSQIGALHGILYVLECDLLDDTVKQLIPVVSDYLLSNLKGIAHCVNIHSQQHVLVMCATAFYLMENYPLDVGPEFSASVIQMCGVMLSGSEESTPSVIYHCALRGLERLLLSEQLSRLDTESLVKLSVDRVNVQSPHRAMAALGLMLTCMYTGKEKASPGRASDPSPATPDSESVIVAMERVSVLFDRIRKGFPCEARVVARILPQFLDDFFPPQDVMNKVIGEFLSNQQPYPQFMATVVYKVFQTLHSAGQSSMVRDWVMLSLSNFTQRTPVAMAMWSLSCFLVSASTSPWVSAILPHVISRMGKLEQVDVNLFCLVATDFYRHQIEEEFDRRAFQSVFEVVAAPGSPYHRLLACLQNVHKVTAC

Molecular target: Huntingtin (HTT), endogenous in rat brain (rat (endogenous in rat brain)) (UniProt P51111)
Assay: co-IP; brain protein lysates (N-PER reagent) of 55 weeks-old wild type and tgHD rats; (m)HTT precipitated with mab2166 (1 ug); TG6 detected with a polyclonal isoform-specific antibody (Zedira)

binding: binds
B1: Transglutaminase 6 (TG6), endogenous in rat brain (enzyme, UniProt F1M4T7 1-706)
chain: MAGVRITKVDWQHSENGAAHHTQDYPCPELVVRRGQLFSLTLDLNRALDSEEALIFTVETGPHASEALHTKAIFQTAELEIGDTWTAAKEEQTENTITVSLSSPSNAVIGRYLLSARAASRRKHSDRKLGQFILLFNPWCPEDDVFLDSEEERQEYVLNDSGIIFRGVEKHIRAQGWNYGQFEEDILNICLSILDRSPSHQDDPATDVSHRHDPVYVTRIISAMVNSNNDRGVVQGQWQGKYGGGTNPLNWRGSVAILQKWFKGKYKPVKYGQCWVFAGVMCTVLRCLGIATRVVSNFNSAHDTDGNLSVDKYVDSYGRTLEDLTEDSMWNFHVWNESWFARQDLGSSYDGWQVLDATPQEESEGTFQCGPASVTAIREGDVHLAHDGPFVFAEVNADYITWLWHEDKRRERVYSDTKKIGRCISTKAVGSDSRVDITGLYKYPEGSRKERQVYGKALKKLLSVEAWGRRRRIRRASVRGIWRDDLLEPVTKPSITGKFKVLEPPVLGQDLKLALCLTNLTTRAQRVRVNVSGATILYTRKPVAEILRESHTMKLGPLEEKRIPVTISYSQYKEDLTEDKKILLAAMCLVSKGEKLLVEKDITLEDFITIKVLGPAVVGVTVAVEVLVINPLSESVKDCVLMVEGSGLLQGQLSVEVPSLKPQERALIQFNITPSKSGPRQLQVDLVSSQFPDIKGFVIIHVATAK
